In US20220323406A1, “METHODS AND COMPOSITIONS FOR DIFFERENTIATING STEM CELLS” (Massachusetts Institute of Technology, priority 2019, published 2022):
Several values for one entry are separate records, joined by “and”; a condition that tells them apart may be missing. Equal values may be shown once. Where a name gives a salt, the structure may show the parent alone. The name of at least one read-out is uncertain.

Experiments:
[1] = system: ENR+CD organoids; assay: Secondary (validation) screen: ATP (CTG) assay, 2.5-D 384-well ENR+CD organoids; assay type: cell-based, mouse; details: 6-day ENR+CD, vs ENR+CD+DMSO
Description: (§1) Drugs were tested at a narrowed dose range around each treatment's identified optimal dose from the primary screen (4× below, 2× above and below).
(§2) High-throughput screening.
(§3) Secondary lysozyme secretion assay screen. Confirmatory secondary screening with primary hits was performed using the above 384-well plate method. The screen was conducted with 4-plate replicates with a base media of ENR+CD. Media was supplemented with compound at day 0 and day 3 (n=8 well replicates per dose) at four different doses: two-fold above, two-fold below, and four-fold below the optimal final dose for each respective treatment. Additionally, each plate carried a large number of ENR+DMSO or ENR+CD+DMSO (vehicle) control wells (n=100 for ATP, and n=25 for LYZ.NS and LYZ.S) for robust normalization. ATP, non-stimulated lysozyme activity and CCh-stimulated lysozyme activity was again measured and the collected data was again processed in a custom R-script, per primary screen with slight modification. Values were log10 transformed, and a plate-wise FC was calculated for each well based on the median value of ENR+CD+DMSO (vehicle) control wells to normalize plate to plate variability.

[2] = system: ENR+CD organoids (ISC to Paneth cell differentiation); assay: Secondary (validation) screen: LYZ.S CCh-stimulated lysozyme secretion, 2.5-D 384-well ENR+CD organoids; assay type: cell-based, mouse; details: 6-day ENR+CD, vs ENR+CD+DMSO
Description: as §1, §2, §3

[3] = system: ENR+CD organoids (ISC to Paneth cell differentiation); assay: Secondary (validation) screen: LYZ.NS basal lysozyme secretion, 2.5-D 384-well ENR+CD organoids; assay type: cell-based, mouse; details: 6-day ENR+CD, vs ENR+CD+DMSO
Description: as §1, §2, §3

[4] = system: ENR+CD organoids; assay: Primary screen: ATP (CellTiter-Glo 3D, CTG) cell number/viability, 2.5-D 384-well ENR+CD organoids;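 also: compounds given at plating and again on day 3 over a 6-day differentiation from ENR+CV stem-cell-enriched precursors, ATP measured on day 6, plate median as control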
[5] = primary screen, dose 0.08 uM, standard z score
[6] = primary screen, dose 0.40 uM, standard z score
[7] = primary screen, dose 2.00 uM, standard z score
[8] = primary screen, dose 10.00 uM, standard z score
[9] = primary screen, standard z score, dose 0.08 uM
[10] = primary screen, standard z score, dose 0.40 uM
[11] = primary screen, standard z score, dose 2.00 uM
[12] = primary screen, standard z score, dose 10.00 uM

Row | Compound | Z.CTG [4, 6] | Z.CTG [4, 7] | Z.CTG (standard z score) ([4]; primary screen, dose 0.08 uM) | Z.CTG (standard z score) ([4]; primary screen, dose 0.40 uM) | Z.CTG (standard z score) ([4]; primary screen, dose 2.00 uM) | Z.CTG (standard z score) ([4]; primary screen, dose 10.00 uM) | further results
1 | CCc1c(C(=O)C(N)=O)c2c(OCC(=O)O)cccc2n1Cc1ccccc1 [Varespladib (LY315920), Varespladib] | – | – | – | – | – | – | Z.CTG ([1]; 0.02 uM): 0.244; repSSMD.CTG ([1]; 0.02 uM): 0.187; Z.CTG ([1]; 0.04 uM): 1.019; repSSMD.CTG ([1]; 0.04 uM): 0.518; Z.CTG ([1]; 0.08 uM): 1.862; repSSMD.CTG ([1]; 0.08 uM): 1.114; Z.LYZ.S ([2]; 0.02 uM): −1.057; repSSMD.LYZ.S ([2]; 0.02 uM): −1.652; Z.LYZ.S ([2]; 0.04 uM): −0.339; repSSMD.LYZ.S ([2]; 0.04 uM): −0.641; Z.LYZ.S ([2]; 0.08 uM): 0.497; repSSMD.LYZ.S ([2]; 0.08 uM): 0.838; Z.LYZ.NS ([3]; 0.02 uM): −0.723; repSSMD.LYZ.NS ([3]; 0.02 uM): −0.763; Z.LYZ.NS ([3]; 0.04 uM): 0.123; repSSMD.LYZ.NS ([3]; 0.04 uM): 0.213; Z.LYZ.NS ([3]; 0.08 uM): 0.718; repSSMD.LYZ.NS ([3]; 0.08 uM): 1.251
2 | CC(C)CC(=O)Nc1[nH]nc2c1CN(C(=O)C1CCN(C)CC1)C2(C)C [PHA-793887] | 0.314 | −0.344 | – | – | – | – | Z.CTG [4, 5]: 0.271; Z.CTG [4, 8]: −2.045
3 | Cn1c(=O)cc(N2CCC[C@@H](N)C2)n(Cc2cc(F)ccc2C#N)c1=O [Trelagliptin] | – | – | 0.482 | −0.181 | 0.120 | 0.322 | –
4 | CN(C)CCc1c[nH]c2ccc(Cn3cncn3)cc12 [Rizatriptan Benzoate] | 0.260 | 0.302 | – | – | – | – | Z.CTG [4, 5]: 0.512
5 | COc1c(O)cc2c(c1O)[C@@H]1O[C@H](CO)[C@@H](O)[C@H](O)[C@H]1OC2=O [Bergenin] | – | – | 0.687 | 0.585 | 0.491 | 0.821 | –
6 | CCOC(=O)[C@H]1O[C@@H]1C(=O)N[C@@H](CC(C)C)C(=O)NCCC(C)C [Aloxistatin] | – | – | −0.015 | −0.014 | −0.308 | −0.511 | –
7 | CC(C)C[C@H](NC(=O)CNC(=O)c1cc(Cl)ccc1Cl)B(O)O [MLN2238] | −2.637 | −2.944 | – | – | – | – | Z.CTG [4, 5]: −3.952; Z.CTG [4, 8]: −4.205
8 | CN1C2CCCC1CC(NC(=O)c1nn(C)c3ccccc13)C2 (stereo not shown) [Granisetron HCl] | – | – | −0.512 | −0.205 | −0.426 | −0.710 | –
9 | CCc1nc(N)nc(N)c1-c1ccc(Cl)cc1 [Pyrimethamine] | −0.618 | −0.994 | – | – | – | – | Z.CTG [4, 5]: 0.016; Z.CTG [4, 8]: −1.480
10 | CC(C)OC(=O)OCOP(=O)(CO[C@H](C)Cn1cnc2c(N)ncnc21)OCOC(=O)OC(C)C [Tenofovir Disoproxil Fumarate] | – | – | 0.172 | −0.004 | −0.378 | −1.034 | –
11 | Nc1nc(CC(=O)Nc2ccc(CCNC[C@H](O)c3ccccc3)cc2)cs1 [Mirabegron] | −0.801 | 0.046 | – | – | – | – | Z.CTG [4, 5]: 0.069; Z.CTG [4, 8]: −0.123
12 | COc1cc2nc(N3CCN(C(=O)C4COc5ccccc5O4)CC3)nc(N)c2cc1OC (stereo not shown) [Doxazosin Mesylate] | – | – | – | – | – | – | Z.CTG [4, 9]: 0.171; Z.CTG [4, 10]: −0.037; Z.CTG [4, 11]: 0.349; Z.CTG [4, 12]: 0.179
13 | Cc1ccccc1C(C(=O)NC1CCCCC1)N(C(=O)Cn1ccnc1C)c1cccc(F)c1 (stereo not shown) [AGI-5198] | – | – | 0.738 | 0.368 | 0.671 | 0.802 | –
14 | CN1CCN(c2nc(C3=C(c4c[nH]c5ccccc45)C(=O)NC3=O)c3ccccc3n2)CC1 [Sotrastaurin] | −0.286 | −0.650 | – | – | – | – | Z.CTG [4, 5]: 0.024; Z.CTG [4, 8]: −0.578
15 | CCc1c2c(nc3ccc(OC(=O)N4CCC(N5CCCCC5)CC4)cc13)-c1cc3c(c(=O)n1C2)COC(=O)[C@]3(O)CC [Irinotecan] | – | – | −0.265 | −1.872 | −1.875 | −2.951 | –
16 | Nc1nc(OCc2cc(Br)cs2)c2[nH]cnc2n1 [Lomeguatrib] | – | – | −1.017 | −0.739 | 0.178 | −0.192 | –

Row | Compound | Z.CTG [4, 6] | Z.CTG [4, 7] | Z.CTG (standard z score) ([4]; primary screen, dose 0.08 uM) | Z.CTG (standard z score) ([4]; primary screen, dose 0.40 uM) | Z.CTG (standard z score) ([4]; primary screen, dose 2.00 uM) | Z.CTG (standard z score) ([4]; primary screen, dose 10.00 uM) | further results
17 | C=CCn1c(=O)c2cnc(Nc3ccc(N4CCN(C)CC4)cc3)nc2n1-c1cccc(C(C)(C)O)n1 [MK-1775] | −1.074 | −1.919 | – | – | – | – | Z.CTG [4, 5]: 0.393; Z.CTG [4, 8]: −2.451
18 | C[C@@H](c1ncncc1F)[C@](O)(Cn1cncn1)c1ccc(F)cc1F [Voriconazole] | – | – | 0.617 | 0.730 | 0.680 | 0.783 | SSMD.CTG (strictly standardized mean difference, ATP CTG) ([4]; Table 5A primary screen; grouped by compound and dose; four dose lines per treatment, dose (uM) not given): 0.687 and 0.910 and 0.656 and 1.038
19 | C[C@H](CS)C(=O)N1CCC[C@H]1C(=O)O [Captopril] | – | – | – | – | – | – | Z.CTG [4, 9]: −0.134; Z.CTG [4, 10]: 0.257; Z.CTG [4, 11]: 0.294; Z.CTG [4, 12]: 0.255
20 | CN(Cc1cnc2nc(N)nc(N)c2n1)c1ccc(C(=O)N[C@@H](CCC(=O)O)C(=O)O)cc1 [Methotrexate] | −1.724 | −1.674 | −1.469 | – | – | – | Z.CTG [4, 8]: −1.534
21 | C[C@@H](O[C@H]1OCCN(Cc2n[nH]c(=O)[nH]2)[C@H]1c1ccc(F)cc1)c1cc(C(F)(F)F)cc(C(F)(F)F)c1 [Aprepitant] | – | – | 0.747 | 0.962 | 0.346 | 0.121 | –
22 | c1ccc(CC2=NCCN2)cc1 [Tolazoline HCl] | – | – | 0.585 | 0.530 | −0.122 | −0.496 | –
23 | O=C(O)/C=C/c1ccc(Cn2ccnc2)cc1 [Ozagrel HCl] | 0.318 | 0.437 | – | – | – | – | Z.CTG [4, 5]: 0.118; Z.CTG [4, 8]: 0.547
24 | CCc1cccc2c3c([nH]c12)C(CC)(CC(=O)O)OCC3 (stereo not shown) [Etodolac] | – | – | – | – | – | – | Z.CTG [4, 9]: −0.147; Z.CTG [4, 10]: 0.117; Z.CTG [4, 11]: 0.020; Z.CTG [4, 12]: 0.054
25 | C[C@]12CC[C@@H]3c4ccc(O)cc4C[C@@H](CCCCCCCCC[S+]([O-])CCCC(F)(F)C(F)(F)F)[C@H]3[C@@H]1CC[C@@H]2O (stereo partly shown) [Fulvestrant] | – | – | – | – | – | – | Z.CTG [4, 9]: 0.285; Z.CTG [4, 10]: −0.150; Z.CTG [4, 11]: 0.339; Z.CTG [4, 12]: −0.488
26 | Cc1ccc(-c2cc(C(F)(F)F)nn2-c2ccc(S(N)(=O)=O)cc2)cc1 [Celecoxib] | – | – | – | – | – | – | Z.CTG [4, 9]: −0.082; Z.CTG [4, 10]: −0.714; Z.CTG [4, 11]: −0.282; Z.CTG [4, 12]: −0.306
27 | CCc1c2c(nc3ccc(OC(=O)N4CCC(N5CCCCC5)CC4)cc13)-c1cc3c(c(=O)n1C2)COC(=O)[C@]3(O)CC [Irinotecan HCl Trihydrate] | – | – | −0.199 | −0.491 | −0.758 | −1.404 | –
28 | Cc1c(Cc2ccc3ccccc3n2)c2cc(F)ccc2n1CC(=O)O [OC000459] | −0.155 | 0.210 | – | – | – | – | Z.CTG [4, 5]: 0.184; Z.CTG [4, 8]: 0.211
29 | CCCSc1nc(N[C@@H]2C[C@H]2c2ccc(F)c(F)c2)c2nnn([C@@H]3C[C@H](OCCO)[C@@H](O)[C@H]3O)c2n1 [Ticagrelor] | – | – | −0.190 | −0.069 | −0.645 | −0.576 | –
30 | C=C1C(=O)O[C@@H]2/C=C(\C)CC/C=C(\C)CC[C@@H]12 [Costunolide] | – | – | – | – | – | – | Z.CTG [4, 9]: −0.070; Z.CTG [4, 10]: 0.288; Z.CTG [4, 11]: 0.120; Z.CTG [4, 12]: 0.019
31 | O=c1cc(-c2ccc(O)cc2)oc2cc(O)cc(O)c12 [Apigenin] | – | – | 0.588 | 0.510 | 0.753 | 0.063 | –
32 | Cc1cc(Nc2ncc(Cl)c(Nc3ccccc3S(=O)(=O)C(C)C)n2)c(OC(C)C)cc1C1CCNCC1 [LDK378] | – | – | 0.322 | 0.010 | −0.869 | −3.087 | –
